# Reference: paper PMC11922775
# Amino acid sequences for entries named in this document (tags omitted).
# UniProt Q61025: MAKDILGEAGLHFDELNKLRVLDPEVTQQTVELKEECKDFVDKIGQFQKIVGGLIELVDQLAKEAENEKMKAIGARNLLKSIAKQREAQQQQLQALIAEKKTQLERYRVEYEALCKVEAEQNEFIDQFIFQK
# Like-named read-outs stand apart in the source and are kept apart here. These are yes or no findings as the source states them, for the method shown. Binding seen in cells or lysates may run through a third protein. Some binding calls cover weakened binding; strength is not graded here.
# T1: Tubby-like protein 3 (TULP3) (mouse (endogenous in N2a)) (UniProt O88413)
# T1 sequence: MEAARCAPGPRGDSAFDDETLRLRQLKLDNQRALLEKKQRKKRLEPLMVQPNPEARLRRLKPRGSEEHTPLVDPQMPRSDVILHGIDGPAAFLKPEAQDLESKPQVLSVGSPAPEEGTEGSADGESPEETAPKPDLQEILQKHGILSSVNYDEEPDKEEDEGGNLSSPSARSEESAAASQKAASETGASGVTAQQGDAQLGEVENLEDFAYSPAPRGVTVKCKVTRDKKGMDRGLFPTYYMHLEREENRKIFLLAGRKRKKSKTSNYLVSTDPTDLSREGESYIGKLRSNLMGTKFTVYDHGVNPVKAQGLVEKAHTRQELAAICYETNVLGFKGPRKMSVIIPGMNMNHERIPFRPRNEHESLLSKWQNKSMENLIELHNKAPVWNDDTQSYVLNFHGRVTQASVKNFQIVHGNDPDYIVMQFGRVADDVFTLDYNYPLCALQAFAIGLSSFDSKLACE
# How the values were obtained:
# [1] = target: T1, Tubby-like protein 3 (TULP3) (mouse (endogenous in N2a)); assay: co-IP; rabbit anti-TULP3 antibody (1 µg) on Dynabeads Protein G, incubated with 400 µg of N2a cell lysate (RIPA, protease/phosphatase inhibitors) overnight at 4 °C, three washes, western blot; control rabbit IgG
# [2] = target: T1, Tubby-like protein 3 (TULP3) (mouse (endogenous in N2a)); assay: as above; remark: listed apart in the source
binding [1],binding [2],Molecule
binds,,IFT20 (from UniProt Q61025 1-132)
,binds,"GPR158 (receptor, UniProt Q8C419 25-1200) SLDPPGRPDSPRERTPRGKQHGQQLPRASAPDPSIPWSRSTDGTILAQKLAEEVPVDVASYLYTGDFHQLKRANCSGRYELAGLPGKSPSLASSHPSLHGALDTLTHATNFLNMMLQSNKSREQTVQDDLQWYQALVRSLLEGEPSISRAAITFSTESLSTPAPQVFLQATREESRILLQDLSSSAHHLANATLETEWFHGLRRKWRPHLHRRGSNQGPRGLGHSWRRRDGLGGDRSHVKWSPPYLECENGSYKPGWLVTLSAAFYGLQPNLVPEFRGVMKVDISLQKVDIDQCSSDGWFSGTHKCHLNNSECMPIKGLGFVLGAYQCICKAGFYHPRVFSVNNFQRRGPDHHFSGSTKDVSEETHVCLPCREGCPFCADDRPCFVQEDKYLRLAIISFQALCMLLDFVSMLVVYHFRKAKSIRASGLILLETILFGSLLLYFPVVILYFEPSTFRCILLRWARLLGFATVYGTVTLKLHRVLKVFLSRTAQRIPYMTGGRVMRMLAVIVLVVFWFLVGWTSSMCQNLERDILLVGQGQTSDHLTFNMCLIDRWDYMTAVAEFLFLLWGIYLCYAVRTVPSAFHEPRYMAVAVHNELIITAIFHTIRFVLASRLQPDWMLMLYFAHAHLTVTVTIGLLLIPKFSHSSNNPRDDIATEAYEDELDMGRSGSYLNSSINSAWSEHSLDPEDIRDELKKLYAQLEIYKRKKMITNNPHLQKKRCSKKGLGRSIMRRITEIPETVSRQCSKEDKEGTDHSAAKGTGLVRKNPTESSGNTGRPKEESLKNRVFSLKKSHSTYDHVRDQTVESSSLPMESQEEEATENSTLESLSSKKLTQKLKEDSEAESTESVPLVCKSASAHNLSSEKKPGHPRTSMLQKSLSVIASAKEKTLGLAGKTQTLVMEDRAKSQKPKDRETIRKYSNSDNVETIPNSGHMEEPRKPQKSGIMKQQRVSLPTANPDVSSGITQIKDNFDIGEVCPWEVYDLTPGPMPSEPKAQKHVSIAASEVEQNPASFLKEKSYHKSKATEGLYQANHKSIDKTEVCPWEIHSQSLLEDENRLISKTPVLPGRAREENGSQLYTTNMCAGQYEELPHKVVAPKVENENLNQMGDQEKQTSSSVDIIPGSCNSSNNSHQPLTSRAEVCPWEFEPLEQPNAERSVTLPASSALSANKIPGPQK"
